Data: article PMC11758633
Results are given in words; binding and its absence hold for the method and conditions named. In cells and extracts the contact can be indirect. Some results given as binding are weak or reduced against the parent protein; the word gives no strength.

Target: T1, Mlx (human (endogenous in RPE-1)) (UniProt Q9UH92)
T1 sequence: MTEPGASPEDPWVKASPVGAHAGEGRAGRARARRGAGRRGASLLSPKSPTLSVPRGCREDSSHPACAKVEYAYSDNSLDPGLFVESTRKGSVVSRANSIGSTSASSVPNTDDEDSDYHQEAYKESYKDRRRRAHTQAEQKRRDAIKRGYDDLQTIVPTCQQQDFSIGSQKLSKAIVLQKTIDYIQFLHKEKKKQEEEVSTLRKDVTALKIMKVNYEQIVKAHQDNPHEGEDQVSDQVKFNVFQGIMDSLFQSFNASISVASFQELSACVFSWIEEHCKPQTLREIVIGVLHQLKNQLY
Assay: co-IP; endogenous proteins; RPE-1 cells treated with vehicle or 25 uM SFN (4 h in the methods; 0, 4 or 8 h in the legend), lysed in TPER with protease inhibitors; capture overnight at 4 °C with an anti-MLX antibody; MondoA detected by Western blot

B1: MondoA (protein, UniProt Q9HAP2 1-919)
chain: MAADVFMCSPRRPRSRGRQVLLKPQVSEDDDDSDTDEPSPPPASGAATPARAHASAAPPPPRAGPGREEPPRRQQIIHSGHFMVSSPHREHPPKKGYDFDTVNKQTCQTYSFGKTSSCHLSIDASLTKLFECMTLAYSGKLVSPKWKNFKGLKLQWRDKIRLNNAIWRAWYMQYLEKRKNPVCHFVTPLDGSVDVDEHRRPEAITTEGKYWKSRIEIVIREYHKWRTYFKKRLQQHKDEDLSSLVQDDDMLYWHKHGDGWKTPVPMEEDPLLDTDMLMSEFSDTLFSTLSSHQPVAWPNPREIAHLGNADMIQPGLIPLQPNLDFMDTFEPFQDLFSSSRSIFGSMLPASASAPVPDPNNPPAQESILPTTALPTVSLPDSLIAPPTAPSLAHMDEQGCEHTSRTEDPFIQPTDFGPSEPPLSVPQPFLPVFTMPLLSPSPAPPPISPVLPLVPPPATALNPPAPPTFHQPQKFAGVNKAPSVITHTASATLTHDAPATTFSQSQGLVITTHHPAPSAAPCGLALSPVTRPPQPRLTFVHPKPVSLTGGRPKQPHKIVPAPKPEPVSLVLKNARIAPAAFSGQPQAVIMTSGPLKREGMLASTVSQSNVVIAPAAIARAPGVPEFHSSILVTDLGHGTSSPPAPVSRLFPSTAQDPLGKGEQVPLHGGSPQVTVTGPSRDCPNSGQASPCASEQSPSPQSPQNNCSGKSDPKNVAALKNRQMKHISAEQKRRFNIKMCFDMLNSLISNNSKLTSHAITLQKTVEYITKLQQERGQMQEEARRLREEIEELNATIISCQQLLPATGVPVTRRQFDHMKDMFDEYVKTRTLQNWKFWIFSIIIKPLFESFKGMVSTSSLEELHRTALSWLDQHCSLPILRPMVLSTLRQLSTSTSILTDPAQLPEQASKAVTRIGKRLGES
For B1, the binding was “binds”.
